In article PMC6908673, “Tuning the in vitro sensing and signaling properties of cyanobacterial PII protein by mutation of key residues” (Scientific Reports, 2019):
Results are given in words; binding and its absence hold for the method and conditions named. Some results given as binding are weak or reduced against the parent protein; the word gives no strength. Where a sequence is shown, tags or fusion partners need not be part of it.

How the values were obtained:
[1] = target: T1, PipX (PII-interacting protein X), His6-tagged (UniProt Q7X386); experiment: SPR; indirect assay: 500 nM His6-PipX pre-incubated with 100 nM Strep-tagged PII, mixture injected on Ni-NTA chip; with 1 mM ATP and 1 mM 2-OG; 25 °C, HBS buffer; both purified
T1 sequence: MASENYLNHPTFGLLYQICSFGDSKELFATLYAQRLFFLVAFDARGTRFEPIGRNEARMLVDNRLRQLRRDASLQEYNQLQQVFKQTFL

[2] = target: T1, PipX (PII-interacting protein X), His6-tagged; experiment: SPR; indirect assay: 500 nM His6-PipX pre-incubated with Strep-tagged PII, mixture injected on Ni-NTA chip; with ADP (3 mM in Fig. 4, 1 mM in Fig. 5); 25 °C, HBS buffer; both purified
[3] = target: T1, PipX (PII-interacting protein X), His6-tagged; experiment: SPR; indirect assay: 500 nM His6-PipX pre-incubated with Strep-tagged PII (500 nM in Fig. 4, 100 nM in Fig. 5), mixture injected on Ni-NTA chip; without effector molecules; 25 °C, HBS buffer; both purified
[4] = target: T1, PipX (PII-interacting protein X), His6-tagged; experiment: SPR; indirect assay: 500 nM His6-PipX pre-incubated with Strep-tagged PII, mixture injected on Ni-NTA chip; with 1 mM ATP; 25 °C, HBS buffer; both purified

Measured: binding

B1: PII (I86N) variant from S. elongatus, Strep-tagged (protein, UniProt P0A3F4 1-112)
chain: MKKIEAIIRPFKLDEVKIALVNAGIVGMTVSEVRGFGRQKGQTERYRGSEYTVEFLQKLKLEIVVEDAQVDTVIDKIVAAARTGENGDGKIFVSPVDQTIRIRTGEKNADAI
binds: all assays above
